Measured values as given in the supplement of paper PMC10849652.
The other results are listed elsewhere or left out.

Sequences of proteins named here, by UniProt entry; tags and fusion partners are left off. A change or cut given only in a name is not applied to a line headed by its entry.
UniProt P54274: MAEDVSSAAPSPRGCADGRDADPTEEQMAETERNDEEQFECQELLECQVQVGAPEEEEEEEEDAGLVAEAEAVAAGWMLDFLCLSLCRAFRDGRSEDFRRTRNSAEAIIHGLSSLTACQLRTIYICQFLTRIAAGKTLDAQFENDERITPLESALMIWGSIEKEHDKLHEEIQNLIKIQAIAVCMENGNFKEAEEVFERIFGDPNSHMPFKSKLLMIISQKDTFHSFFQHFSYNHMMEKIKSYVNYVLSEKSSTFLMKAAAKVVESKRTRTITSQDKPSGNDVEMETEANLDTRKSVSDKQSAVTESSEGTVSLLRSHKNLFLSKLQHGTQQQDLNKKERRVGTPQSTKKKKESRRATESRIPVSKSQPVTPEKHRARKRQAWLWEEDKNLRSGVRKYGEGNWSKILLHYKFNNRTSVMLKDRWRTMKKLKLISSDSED
UniProt P19484: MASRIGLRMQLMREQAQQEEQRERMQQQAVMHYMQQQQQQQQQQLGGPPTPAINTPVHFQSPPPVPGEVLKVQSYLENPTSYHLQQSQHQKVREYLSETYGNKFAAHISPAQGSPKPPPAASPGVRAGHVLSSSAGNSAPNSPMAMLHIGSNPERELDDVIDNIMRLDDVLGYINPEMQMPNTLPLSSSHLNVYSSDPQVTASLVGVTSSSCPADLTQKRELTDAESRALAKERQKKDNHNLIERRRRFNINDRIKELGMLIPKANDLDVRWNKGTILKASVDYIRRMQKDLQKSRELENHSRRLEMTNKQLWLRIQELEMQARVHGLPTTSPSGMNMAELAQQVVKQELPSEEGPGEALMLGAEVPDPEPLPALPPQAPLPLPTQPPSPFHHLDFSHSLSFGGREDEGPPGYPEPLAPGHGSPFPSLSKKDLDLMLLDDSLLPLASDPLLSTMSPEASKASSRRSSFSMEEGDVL
UniProt Q5QJ74: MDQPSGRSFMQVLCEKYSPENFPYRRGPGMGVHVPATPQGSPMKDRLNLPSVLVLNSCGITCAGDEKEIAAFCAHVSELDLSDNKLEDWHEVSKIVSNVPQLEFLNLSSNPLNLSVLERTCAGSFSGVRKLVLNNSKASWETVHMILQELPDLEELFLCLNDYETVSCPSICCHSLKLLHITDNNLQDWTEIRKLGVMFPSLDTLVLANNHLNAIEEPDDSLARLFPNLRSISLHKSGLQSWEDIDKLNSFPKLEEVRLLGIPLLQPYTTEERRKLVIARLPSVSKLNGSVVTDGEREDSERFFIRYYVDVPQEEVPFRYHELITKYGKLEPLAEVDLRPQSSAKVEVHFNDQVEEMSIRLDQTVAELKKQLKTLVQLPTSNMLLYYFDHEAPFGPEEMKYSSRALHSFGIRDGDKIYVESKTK
UniProt Q15562, whole entry, looked up: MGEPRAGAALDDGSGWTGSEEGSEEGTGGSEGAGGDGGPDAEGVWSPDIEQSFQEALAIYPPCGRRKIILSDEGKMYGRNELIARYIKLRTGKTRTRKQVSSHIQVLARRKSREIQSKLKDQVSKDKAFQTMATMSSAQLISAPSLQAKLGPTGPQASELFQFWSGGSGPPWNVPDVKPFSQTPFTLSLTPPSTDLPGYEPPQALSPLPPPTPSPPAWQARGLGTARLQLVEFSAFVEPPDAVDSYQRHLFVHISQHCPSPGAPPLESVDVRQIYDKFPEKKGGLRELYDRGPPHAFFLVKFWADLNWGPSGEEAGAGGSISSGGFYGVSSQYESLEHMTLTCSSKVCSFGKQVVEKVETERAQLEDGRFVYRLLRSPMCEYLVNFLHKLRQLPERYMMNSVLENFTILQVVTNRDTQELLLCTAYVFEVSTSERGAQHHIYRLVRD
UniProt O15533, whole entry, looked up: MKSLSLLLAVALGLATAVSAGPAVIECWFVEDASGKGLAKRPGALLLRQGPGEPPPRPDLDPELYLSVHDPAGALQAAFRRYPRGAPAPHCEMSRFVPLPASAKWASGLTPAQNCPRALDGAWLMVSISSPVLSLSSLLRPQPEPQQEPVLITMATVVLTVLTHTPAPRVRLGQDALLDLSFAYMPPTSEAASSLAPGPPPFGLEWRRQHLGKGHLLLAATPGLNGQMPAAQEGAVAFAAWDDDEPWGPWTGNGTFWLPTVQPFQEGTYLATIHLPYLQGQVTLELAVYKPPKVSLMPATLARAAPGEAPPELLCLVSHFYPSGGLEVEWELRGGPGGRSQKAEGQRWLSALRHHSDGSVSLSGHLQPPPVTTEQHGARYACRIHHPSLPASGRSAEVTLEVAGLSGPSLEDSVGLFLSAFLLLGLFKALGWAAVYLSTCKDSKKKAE
UniProt Q96QE5: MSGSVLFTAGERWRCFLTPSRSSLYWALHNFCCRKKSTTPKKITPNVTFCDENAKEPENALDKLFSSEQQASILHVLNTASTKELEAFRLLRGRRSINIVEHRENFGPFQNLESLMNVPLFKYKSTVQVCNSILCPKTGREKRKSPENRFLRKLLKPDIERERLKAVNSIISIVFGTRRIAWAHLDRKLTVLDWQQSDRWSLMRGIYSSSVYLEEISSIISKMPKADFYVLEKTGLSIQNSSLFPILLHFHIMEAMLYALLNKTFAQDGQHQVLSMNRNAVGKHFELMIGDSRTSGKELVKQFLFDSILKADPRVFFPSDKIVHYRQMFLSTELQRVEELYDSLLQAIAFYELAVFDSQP
UniProt O60347: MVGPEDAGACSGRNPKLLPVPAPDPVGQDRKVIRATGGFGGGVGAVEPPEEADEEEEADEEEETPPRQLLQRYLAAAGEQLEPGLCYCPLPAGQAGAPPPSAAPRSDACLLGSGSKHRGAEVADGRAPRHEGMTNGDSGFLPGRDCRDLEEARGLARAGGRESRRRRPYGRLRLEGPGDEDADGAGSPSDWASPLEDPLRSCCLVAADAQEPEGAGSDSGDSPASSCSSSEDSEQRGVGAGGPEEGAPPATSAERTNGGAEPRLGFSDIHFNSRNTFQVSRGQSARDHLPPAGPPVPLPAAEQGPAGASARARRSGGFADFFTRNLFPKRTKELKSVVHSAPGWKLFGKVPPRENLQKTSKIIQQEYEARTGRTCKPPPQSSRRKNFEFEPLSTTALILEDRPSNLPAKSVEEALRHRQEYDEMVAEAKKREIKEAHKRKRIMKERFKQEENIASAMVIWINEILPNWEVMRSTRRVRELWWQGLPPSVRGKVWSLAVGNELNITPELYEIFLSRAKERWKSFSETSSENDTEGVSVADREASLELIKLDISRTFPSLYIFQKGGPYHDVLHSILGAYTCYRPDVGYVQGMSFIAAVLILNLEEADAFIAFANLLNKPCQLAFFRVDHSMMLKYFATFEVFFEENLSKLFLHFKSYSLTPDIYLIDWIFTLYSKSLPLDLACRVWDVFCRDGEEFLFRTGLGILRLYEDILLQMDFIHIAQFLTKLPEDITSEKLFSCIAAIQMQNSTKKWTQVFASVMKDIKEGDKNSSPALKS
UniProt Q9Y4I5: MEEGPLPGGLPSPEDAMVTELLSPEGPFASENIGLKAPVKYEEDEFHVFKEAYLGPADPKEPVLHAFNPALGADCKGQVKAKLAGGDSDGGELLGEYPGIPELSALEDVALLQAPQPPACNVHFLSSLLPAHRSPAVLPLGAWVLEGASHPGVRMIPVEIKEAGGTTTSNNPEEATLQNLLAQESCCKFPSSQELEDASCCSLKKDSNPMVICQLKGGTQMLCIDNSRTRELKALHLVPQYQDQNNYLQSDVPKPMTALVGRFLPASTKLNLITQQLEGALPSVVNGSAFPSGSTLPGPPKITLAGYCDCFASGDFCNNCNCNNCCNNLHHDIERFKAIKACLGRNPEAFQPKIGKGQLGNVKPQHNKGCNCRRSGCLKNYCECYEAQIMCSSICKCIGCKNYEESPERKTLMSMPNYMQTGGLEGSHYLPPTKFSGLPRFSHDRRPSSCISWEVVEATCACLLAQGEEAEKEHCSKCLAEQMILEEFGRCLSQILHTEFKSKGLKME
UniProt P20226, whole entry, looked up: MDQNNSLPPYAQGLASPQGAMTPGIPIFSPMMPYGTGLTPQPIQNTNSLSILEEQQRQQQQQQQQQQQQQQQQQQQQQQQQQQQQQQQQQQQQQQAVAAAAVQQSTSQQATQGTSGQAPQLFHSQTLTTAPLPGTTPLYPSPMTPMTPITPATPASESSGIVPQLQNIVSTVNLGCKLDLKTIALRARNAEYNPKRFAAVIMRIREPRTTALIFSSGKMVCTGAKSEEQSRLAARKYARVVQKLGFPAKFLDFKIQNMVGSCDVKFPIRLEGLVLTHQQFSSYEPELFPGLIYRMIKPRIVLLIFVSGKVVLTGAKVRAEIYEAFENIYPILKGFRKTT
UniProt Q8N9U0: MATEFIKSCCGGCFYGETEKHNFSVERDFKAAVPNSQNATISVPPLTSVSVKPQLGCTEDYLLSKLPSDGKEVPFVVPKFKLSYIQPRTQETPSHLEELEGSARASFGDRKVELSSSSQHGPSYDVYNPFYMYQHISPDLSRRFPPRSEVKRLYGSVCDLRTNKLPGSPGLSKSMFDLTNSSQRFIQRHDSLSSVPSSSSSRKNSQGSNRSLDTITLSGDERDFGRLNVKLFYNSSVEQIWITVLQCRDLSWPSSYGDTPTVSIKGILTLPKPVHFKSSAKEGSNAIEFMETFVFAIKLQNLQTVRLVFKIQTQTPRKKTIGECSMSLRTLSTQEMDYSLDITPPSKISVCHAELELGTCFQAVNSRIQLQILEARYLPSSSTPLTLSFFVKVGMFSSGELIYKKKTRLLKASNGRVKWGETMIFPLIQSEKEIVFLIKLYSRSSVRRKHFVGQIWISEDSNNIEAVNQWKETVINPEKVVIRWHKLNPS
UniProt P15884: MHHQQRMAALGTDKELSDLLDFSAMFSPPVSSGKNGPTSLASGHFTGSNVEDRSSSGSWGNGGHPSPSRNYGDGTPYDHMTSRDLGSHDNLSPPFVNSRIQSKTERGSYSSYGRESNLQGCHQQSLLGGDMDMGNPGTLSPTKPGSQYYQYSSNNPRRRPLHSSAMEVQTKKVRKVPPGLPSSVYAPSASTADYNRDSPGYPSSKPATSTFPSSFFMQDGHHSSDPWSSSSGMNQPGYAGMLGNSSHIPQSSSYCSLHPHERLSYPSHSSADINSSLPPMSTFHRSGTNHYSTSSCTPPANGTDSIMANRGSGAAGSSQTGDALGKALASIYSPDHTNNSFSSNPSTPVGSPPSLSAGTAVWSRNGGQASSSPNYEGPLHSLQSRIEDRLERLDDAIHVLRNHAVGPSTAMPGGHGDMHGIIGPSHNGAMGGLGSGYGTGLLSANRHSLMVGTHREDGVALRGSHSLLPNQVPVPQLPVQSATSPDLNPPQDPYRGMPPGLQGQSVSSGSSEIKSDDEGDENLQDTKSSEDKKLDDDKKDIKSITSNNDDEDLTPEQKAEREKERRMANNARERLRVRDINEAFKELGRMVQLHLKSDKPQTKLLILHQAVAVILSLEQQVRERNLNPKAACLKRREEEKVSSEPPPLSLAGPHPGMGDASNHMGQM

Assays:
Assay in all cases: log2 fold change, soluble protein after heating vs DMSO (PISA); higher = thermal stabilisation; K562 lysate, 10 uM; active = over 0.2 and 3.5 SD of the protein, either way, in both replicates (recomputed)
vemurafenib = compound: CCCS(=O)(=O)Nc1ccc(F)c(C(=O)c2c[nH]c3ncc(-c4ccc(Cl)cc4)cc23)c1F [vemurafenib]
In short: (§1)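 The values are log-two fold changes in thermal stability compared with solvent controls and come from duplicates. They were obtained by TMTpro 16plex LC-MS/MS, with channel sums equalised, on the supernatant after 21,000xg for 90 min. That supernatant came from crude K562 extract at 1 mg/mL protein treated with 10 μM compound for 30 min, heated for 3 min across 48°C-58°C, pooled and brought to 0.5% NP-40 at 4°C.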

[1] = compound: CC[C@@H]1C(=O)N(C)c2cnc(Nc3ccc(C(=O)NC4CCN(C)CC4)cc3OC)nc2N1C1CCCC1
In short: as §1

sotrastaurin = compound: CN1CCN(c2nc(C3=C(c4c[nH]c5ccccc45)C(=O)NC3=O)c3ccccc3n2)CC1 [sotrastaurin]
In short: as §1

defactinib = compound: CNC(=O)c1ccc(Nc2ncc(C(F)(F)F)c(NCc3nccnc3N(C)S(C)(=O)=O)n2)cc1 [defactinib]
In short: as §1

encorafenib = compound: COC(=O)N[C@@H](C)CNc1nccc(-c2cn(C(C)C)nc2-c2cc(Cl)cc(NS(C)(=O)=O)c2F)n1 [encorafenib]
In short: as §1

[2] = compound: COC(=O)[C@H](CCSC)NC(=O)C1=C(C=C(C=C1)NC[C@H](CS)N)C2=CC=CC=C2
In short: as §1

alisertib = compound: COc1cc(Nc2ncc3c(n2)-c2ccc(Cl)cc2C(c2c(F)cccc2OC)=NC3)ccc1C(=O)O [alisertib]
In short: as §1

gefitinib = compound: COc1cc2ncnc(Nc3ccc(F)c(Cl)c3)c2cc1OCCCN1CCOCC1 [gefitinib]
In short: as §1

barasertib = compound: CCN(CCCOc1ccc2c(Nc3cc(CC(=O)Nc4cccc(F)c4)[nH]n3)ncnc2c1)CCOP(=O)(O)O [barasertib]
In short: as §1

[3] = compound: CCn1c(C(=O)N(C2CC2)C2CC2)cc2c3c(ncn3C)c(Nc3cc(C)n(C)n3)nc21
In short: as §1

[4] = compound: CCn1cc(-c2ccnc3[nH]c(-c4cccc(CN(C)C)c4)cc23)c(-c2ccc(NC(=O)N(C)C)cc2)n1
In short: as §1

[5] = compound: CN1CCC(CNc2ccc3ncc(-c4cccc(OC(F)(F)F)c4)n3n2)CC1
In short: as §1

saracatinib = compound: CN1CCN(CCOc2cc(OC3CCOCC3)c3c(Nc4c(Cl)ccc5c4OCO5)ncnc3c2)CC1 [saracatinib]
In short: as §1

alvocidib = compound: CN1CC[C@H](c2c(O)cc(O)c3c(=O)cc(-c4ccccc4Cl)oc23)[C@H](O)C1 [alvocidib]
In short: as §1

Tubastatin A = compound: CN1CCc2c(c3ccccc3n2Cc2ccc(C(=O)NO)cc2)C1 [Tubastatin A]
In short: as §1

[6] = compound: CNC(=O)C1=CC=CC=C1NC2=NC(=NC=C2Cl)NC3=C(C=C(C=C3)N4CCOCC4)OC
In short: as §1

[7] = compound: CNc1nc(-c2ccc3c(N)n[nH]c3c2)cc(N2C[C@@H](C(=O)NC3CCCCC3)CC[C@H]2C)n1
In short: as §1

[8] = compound: CCCS(=O)(=O)Nc1ccc(F)c(C(=O)c2c[nH]c3ncc(Cl)cc23)c1F
In short: as §1

volasertib = compound: CC[C@@H]1C(=O)N(C)c2cnc(Nc3ccc(C(=O)N[C@H]4CC[C@H](N5CCN(CC6CC6)CC5)CC4)cc3OC)nc2N1C(C)C [volasertib]
In short: as §1

[9] = compound: COc1cc2nc(-c3cc(F)ccc3O)nc(N[C@@H]3CNC[C@H]3C(C)(C)O)c2cc1OC
In short: as §1

Measured: log2 fold change

TERF1 (UniProt P54274)
inactive: vemurafenib -0.032 | [1] -0.166 | sotrastaurin 0.035 | defactinib 0.04 | encorafenib -0.021 | [2] 0.288 | alisertib -0.064 | gefitinib -0.034

TFEB (UniProt P19484)
inactive: vemurafenib 0.009 | sotrastaurin 0.091 | defactinib -0.172 | alisertib 0.007 | gefitinib 0.075

TBCEL (UniProt Q5QJ74)
inactive: vemurafenib -0.022 | barasertib -0.385 | [3] -0.087 | [4] -0.21 | [5] -0.144 | saracatinib -0.018 | alvocidib -0.127 | Tubastatin A 0.055 | [6] -0.082 | defactinib -0.059 | [7] 0.013 | alisertib 0.136 | gefitinib -0.206

TEAD2 isoform 4 (UniProt Q15562)
inactive: vemurafenib 0.158 | saracatinib 0.04 | [6] 0.091 | defactinib 0.207 | [7] 0.133

TAPBP isoform 3 (UniProt O15533)
inactive: vemurafenib 0.048 | barasertib 0.263 | [1] -0.068 | saracatinib 0.062 | sotrastaurin -0.017 | [6] -0.063 | defactinib 0.017 | [7] -0.025 | encorafenib -0.004 | [2] 0.048

TARDBP (UniProt K7EN94)
inactive: vemurafenib 0.008 | [1] -0.039 | defactinib -0.197 | encorafenib 0.224 | [2] 0.04

TEFM (UniProt Q96QE5)
inactive: vemurafenib 0.131 | [8] 0.022 | [1] -0.021 | volasertib 0.037 | [3] -0.135 | [4] 0.026 | [5] -0.116 | saracatinib -0.037 | sotrastaurin 0.041 | alvocidib 0.023 | Tubastatin A 0.015 | [6] 0.037 | defactinib 0.09 | [7] -0.05 | encorafenib -0.118 | [2] 0.08 | alisertib -0.002 | [9] 0.004 | gefitinib -0.052

TBC1D12 (UniProt O60347)
inactive: vemurafenib -0.047 | [8] 0.045 | [1] -0.086 | volasertib 0.014 | [3] -0.031 | [4] -0.04 | [5] 0.012 | saracatinib -0.052 | sotrastaurin -0.062 | alvocidib -0.189 | Tubastatin A 0.008 | [6] 0.019 | defactinib 0.016 | [7] 0.076 | encorafenib -0.079 | [2] 0.092 | [9] 0.204

TESMIN (UniProt Q9Y4I5)
inactive: vemurafenib -0.195 | [1] 0.133 | [3] 0.034 | [4] -0.282 | [5] 0 | saracatinib -0.041 | sotrastaurin -0.02 | alvocidib 0.076 | Tubastatin A 0.038 | [6] -0.004 | defactinib -0.07 | [7] 0.151 | encorafenib -0.056 | [2] 0.055

TBP (UniProt P20226)
inactive: [8] 0.005 | barasertib 0.006 | [1] 0.021 | volasertib 0 | [3] -0.114 | [4] -0.078 | [5] 0.084 | saracatinib 0.038 | sotrastaurin 0.046 | alvocidib -0.046 | Tubastatin A -0.015 | [6] 0.02 | [7] 0.082 | encorafenib -0.023 | [2] 0.19 | alisertib 0.017 | [9] 0.029 | gefitinib 0.073

TC2N (UniProt Q8N9U0)
inactive: vemurafenib 0.187 | [1] 0.207 | [4] -0.11 | [5] 0.021 | alvocidib -0.063 | defactinib -0.006 | encorafenib -0.006 | [2] -0.069

TCF4 (UniProt P15884)
inactive: [8] -0.015 | [1] -0.017 | volasertib 0.126 | [3] 0.008 | [4] -0.011 | [5] 0.03 | saracatinib 0.021 | sotrastaurin -0.017 | alvocidib 0.005 | Tubastatin A -0.282 | [7] -0.009 | encorafenib 0.17 | [2] -0.099 | alisertib 0.078 | [9] 0.212 | gefitinib 0.06

2 records drawn at random from those above:
TBP (UniProt P20226)
inactive: [8] 0.005 | barasertib 0.006 | [1] 0.021 | volasertib 0 | [3] -0.114 | [4] -0.078 | [5] 0.084 | saracatinib 0.038 | sotrastaurin 0.046 | alvocidib -0.046 | Tubastatin A -0.015 | [6] 0.02 | [7] 0.082 | encorafenib -0.023 | [2] 0.19 | alisertib 0.017 | [9] 0.029 | gefitinib 0.073

TBC1D12 (UniProt O60347)
inactive: vemurafenib -0.047 | [8] 0.045 | [1] -0.086 | volasertib 0.014 | [3] -0.031 | [4] -0.04 | [5] 0.012 | saracatinib -0.052 | sotrastaurin -0.062 | alvocidib -0.189 | Tubastatin A 0.008 | [6] 0.019 | defactinib 0.016 | [7] 0.076 | encorafenib -0.079 | [2] 0.092 | [9] 0.204
